Assay results: publication PMC8274477
Results are given in words; binding and its absence hold for the method and conditions named. Some entries that bind do so weakly or less than the wild type.

Tests used:
Test in all cases: peptide or protein array; HuProt human proteome microarray; 5 ug/5 ml biotin-labelled LUBAC or OTULIN in solution, 1 h at room temperature; Cy5-streptavidin, scanned at 635 nm; BSA as negative control; hits: Z-score >= 3 and I_(Mean_Ratio) >= 1.4; both purified
ZNF385B (human) = molecular target: T1, ZNF385B (human) (UniProt Q569K4)
T1 sequence: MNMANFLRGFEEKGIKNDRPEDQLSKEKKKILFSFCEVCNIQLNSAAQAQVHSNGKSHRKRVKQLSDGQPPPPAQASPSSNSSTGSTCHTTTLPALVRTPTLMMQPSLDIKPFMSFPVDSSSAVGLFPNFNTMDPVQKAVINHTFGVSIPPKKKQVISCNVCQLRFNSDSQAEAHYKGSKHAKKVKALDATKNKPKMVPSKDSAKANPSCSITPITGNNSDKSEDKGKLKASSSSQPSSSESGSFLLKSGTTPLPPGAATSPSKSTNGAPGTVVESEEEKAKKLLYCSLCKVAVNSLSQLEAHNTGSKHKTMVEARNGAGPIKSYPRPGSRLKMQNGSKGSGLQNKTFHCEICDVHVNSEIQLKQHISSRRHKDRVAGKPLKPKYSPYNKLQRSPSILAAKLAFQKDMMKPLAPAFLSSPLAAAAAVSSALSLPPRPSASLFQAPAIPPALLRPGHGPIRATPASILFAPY

RTCA (human) = molecular target: T2, RTCA (human) (UniProt O00442)
T2 sequence: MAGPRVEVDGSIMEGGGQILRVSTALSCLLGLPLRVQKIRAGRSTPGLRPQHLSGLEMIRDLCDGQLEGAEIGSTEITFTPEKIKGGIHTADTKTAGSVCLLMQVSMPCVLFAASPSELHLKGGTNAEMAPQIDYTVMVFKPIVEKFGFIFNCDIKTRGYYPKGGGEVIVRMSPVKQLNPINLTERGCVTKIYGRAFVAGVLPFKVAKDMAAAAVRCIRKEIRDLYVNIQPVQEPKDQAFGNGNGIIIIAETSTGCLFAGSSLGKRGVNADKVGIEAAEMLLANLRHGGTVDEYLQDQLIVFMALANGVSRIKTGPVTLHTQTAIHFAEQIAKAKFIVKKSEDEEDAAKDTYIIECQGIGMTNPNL

RBM3 (human) = molecular target: T3, RBM3 (human) (UniProt P98179)
T3 sequence: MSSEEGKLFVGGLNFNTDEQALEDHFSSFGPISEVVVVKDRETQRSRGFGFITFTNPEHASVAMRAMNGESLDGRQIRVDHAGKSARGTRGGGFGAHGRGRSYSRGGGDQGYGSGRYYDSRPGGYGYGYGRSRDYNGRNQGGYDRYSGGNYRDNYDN

DNALI1 (human) = molecular target: T4, DNALI1 (human) (UniProt O14645)
T4 sequence: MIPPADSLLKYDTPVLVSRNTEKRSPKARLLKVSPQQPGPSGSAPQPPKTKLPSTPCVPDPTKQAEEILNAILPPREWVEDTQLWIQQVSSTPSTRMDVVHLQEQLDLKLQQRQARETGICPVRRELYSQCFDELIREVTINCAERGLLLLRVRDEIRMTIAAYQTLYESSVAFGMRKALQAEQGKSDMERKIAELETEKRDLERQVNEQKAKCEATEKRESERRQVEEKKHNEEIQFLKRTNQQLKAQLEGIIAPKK

DNM2 (human) = molecular target: T5, DNM2 (human) (UniProt P50570)
T5 sequence: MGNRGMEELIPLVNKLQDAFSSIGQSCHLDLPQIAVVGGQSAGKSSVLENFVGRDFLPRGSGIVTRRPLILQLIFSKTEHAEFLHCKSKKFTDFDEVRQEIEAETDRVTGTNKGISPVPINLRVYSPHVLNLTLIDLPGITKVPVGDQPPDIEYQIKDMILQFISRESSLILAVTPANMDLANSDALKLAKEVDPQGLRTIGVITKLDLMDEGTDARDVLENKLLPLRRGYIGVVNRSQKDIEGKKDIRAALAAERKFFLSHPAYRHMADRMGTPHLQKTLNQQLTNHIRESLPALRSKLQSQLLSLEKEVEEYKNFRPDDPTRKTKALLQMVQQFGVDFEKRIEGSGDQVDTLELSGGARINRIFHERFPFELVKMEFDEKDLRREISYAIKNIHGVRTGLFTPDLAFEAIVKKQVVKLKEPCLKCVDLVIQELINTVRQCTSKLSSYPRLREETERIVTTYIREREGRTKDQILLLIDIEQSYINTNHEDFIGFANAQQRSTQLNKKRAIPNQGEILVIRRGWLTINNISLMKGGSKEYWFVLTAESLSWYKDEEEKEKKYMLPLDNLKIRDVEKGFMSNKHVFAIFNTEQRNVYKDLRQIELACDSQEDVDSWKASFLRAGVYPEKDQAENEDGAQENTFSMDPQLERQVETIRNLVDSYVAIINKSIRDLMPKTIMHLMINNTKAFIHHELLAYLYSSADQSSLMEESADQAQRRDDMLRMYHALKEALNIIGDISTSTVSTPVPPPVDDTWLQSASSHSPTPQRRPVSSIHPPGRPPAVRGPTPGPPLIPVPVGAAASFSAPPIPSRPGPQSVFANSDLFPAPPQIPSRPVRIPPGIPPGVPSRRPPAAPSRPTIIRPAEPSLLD

Measured: binding

linear ubiquitin chain assembly complex (LUBAC), purified as HIS-tagged HOIP with the subunit HOIL-1, biotin-labelled (from UniProt Q96EP0 1-1072; Q9BYM8 1-510)
binds: all assays above
